Reference: PubChem BioAssay AID252 (DTP/NCI, 2004)
The list shows only some results of the screen, not a fair sample: it gathers tests that were run many times, whatever their T/C, doses with no T/C, and many T/C values between a quarter and a half above the control. Further doses and runs are listed elsewhere. T/C gives the treated animals as a percentage of the vehicle group. Some entries give survivors of the animals treated and no T/C: the source files T/C as zero there, which appears to mark a toxic dose or a test without result, not a measured value. Some survivor counts are full or nearly so, which does not show that the dose was tolerated: the source hardly ever lists a survival T/C far under the control, and the zero likely stands for such cases as well. Counts of survivors are from the toxicity check (mostly the fifth day) where no day follows; animals may have died later. Schedule codes are those of the source, taken here to give the interval after Q, in days (D) or hours (H), and the number of doses after X. Some schedules carry Z or #; the key to these is not given. For survival time, this PubChem deposit counts one and a half times the control or more as active, and values a quarter to a half above the control carry no call in these data; other NCI protocols may use other cut-offs. Some entries were tested several times; the results are listed from low to high. Some T/C values are followed by the survivors on the day toxicity was checked, most often the fifth; without a count, all were alive then.

System: BDF1 mice, intracerebral L1210 leukemia, survival T/C
Assay: NCI In Vivo Anticancer Drug Screen. Data for tumor model L1210 Leukemia (intracerebral) in B6D2F1 (BDF1) mice
Settings: higher T/C = longer survival
In short: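 Transplantable tumour-bearing mice, compound-treated vs vehicle controls; read-out survival, reported as T/C ratio.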

[1] = T/C endpoint: mean survival time, dose: 40.0 mg/kg/injection, schedule: Q01DX001 (ip), vehicle: carboxymethylcellulose (CMC)
[2] = T/C endpoint: mean survival time, dose: 600.0 mg/kg/injection, schedule: Q01DX001 (ip), vehicle: carboxymethylcellulose (CMC)
[3] = T/C endpoint: mean survival time, dose: 1200.0 mg/kg/injection, schedule: Q01DX001 (ip), vehicle: carboxymethylcellulose (CMC)
[4] = T/C endpoint: mean survival time, dose: 207.0 mg/kg/injection, schedule: Q01DX001 (ip), vehicle: carboxymethylcellulose (CMC)
[5] = T/C endpoint: mean survival time, dose: 32.0 mg/kg/injection, schedule: Q01DX009 (ip), vehicle: saline
[6] = T/C endpoint: mean survival time, dose: 64.0 mg/kg/injection, schedule: Q01DX009 (ip), vehicle: saline

In the case of O=NN(CCCl)C(=O)Nc1ccc(CC(=O)O)cc1, the T/C (T/C endpoint: mean survival time, dose: 20.0 mg/kg/injection, schedule: Q01DX001 (ip), vehicle: carboxymethylcellulose (CMC)) was 138 % of control, the survivor count [1] was 4 of 10 and the survivor count (T/C endpoint: mean survival time, dose: 60.0 mg/kg/injection, schedule: Q01DX001 (ip), vehicle: carboxymethylcellulose (CMC)) was 3 of 10. For the same compound, the survivor count (T/C endpoint: mean survival time, dose: 90.0 mg/kg/injection, schedule: Q01DX001 (ip), vehicle: carboxymethylcellulose (CMC)) was 2 of 10.

In the case of Cc1cccc(C)c1NC(=O)N(CCCl)N=O, the T/C (T/C endpoint: mean survival time, dose: 46.0 mg/kg/injection, schedule: Q01DX001 (ip), vehicle: carboxymethylcellulose (CMC)) was 131 % of control.

With CCOC(=O)C1(NC(=O)N(CCCl)N=O)CCCC1 the T/C (T/C endpoint: mean survival time, dose: 110.0 mg/kg/injection, schedule: Q01DX001 (ip), vehicle: other) was 129 % of control, the T/C (T/C endpoint: mean survival time, dose: 165.0 mg/kg/injection, schedule: Q01DX001 (ip), vehicle: other) was 128 % of control and the T/C (T/C endpoint: mean survival time, dose: 168.0 mg/kg/injection, schedule: Q01DX001 (ip), vehicle: other) was 143 % of control. For the same compound, the survivor count (T/C endpoint: mean survival time, dose: 247.0 mg/kg/injection, schedule: Q01DX001 (ip), vehicle: other) was 5 of 8, the T/C (T/C endpoint: mean survival time, dose: 375.0 mg/kg/injection, schedule: Q01DX001 (ip), vehicle: other) was 129 % of control and the survivor count (T/C endpoint: mean survival time, dose: 555.0 mg/kg/injection, schedule: Q01DX001 (ip), vehicle: other) was 9 of 10.

For O=C(Nc1ccc(C2=NCCN2)cc1)c1cccc(C(=O)Nc2ccc(C3=NCCN3)cc2)c1, the survivor count (T/C endpoint: mean survival time, dose: 62.0 mg/kg/injection, schedule: Q01DX Z (ip), vehicle: water) was 0 of 6, the survivor count (T/C endpoint: mean survival time, dose: 125.0 mg/kg/injection, schedule: Q01DX Z (ip), vehicle: water) was 1 of 6 and the survivor count (T/C endpoint: mean survival time, dose: 250.0 mg/kg/injection, schedule: Q01DX Z (ip), vehicle: water) was 1 of 6. The survivor count (T/C endpoint: mean survival time, dose: 500.0 mg/kg/injection, schedule: Q01DX Z (ip), vehicle: water) was 0 of 6.

In the case of CCC(=O)NC1=C(N2CC2)C(=O)C(NC(=O)CC)=C(N2CC2)C1=O, the T/C (T/C endpoint: mean survival time, dose: 1.0 mg/kg/injection, schedule: Q01DX009 (ip), vehicle: saline) was 129 % of control and the survivor count (T/C endpoint: mean survival time, dose: 4.0 mg/kg/injection, schedule: Q01DX009 (ip), vehicle: saline) was 6 of 6.

With CCS(=O)(=O)Nc1cccc(Nc2c3cccc(C)c3nc3c(C)cccc23)c1OC the survivor count (T/C endpoint: mean survival time, dose: 50.0 mg/kg/injection, schedule: Q01DX009 (ip), vehicle: water) was 9 of 10 and the survivor count (T/C endpoint: mean survival time, dose: 100.0 mg/kg/injection, schedule: Q01DX009 (ip), vehicle: water) was 7 of 10.

With CCOC(=O)c1ccc(NC(=O)N(C)N=O)cc1 the survivor count [2] was 6 of 10 and the survivor count [3] was 1 of 10.

With CCOCCN1CCN(CCCN2c3ccccc3Sc3ccc(C(F)(F)F)cc32)CC1 the survivor count (T/C endpoint: mean survival time, dose: 3.12 mg/kg/injection, schedule: Q01DX009 (ip), vehicle: water) was 10 of 10, the survivor count (T/C endpoint: mean survival time, dose: 6.25 mg/kg/injection, schedule: Q01DX009 (ip), vehicle: saline) was 1 of 6 and the survivor count (T/C endpoint: mean survival time, dose: 12.5 mg/kg/injection, schedule: Q01DX009 (ip), vehicle: saline) was 0 of 6. For the same compound, the survivor count (T/C endpoint: mean survival time, dose: 25.0 mg/kg/injection, schedule: Q01DX009 (ip), vehicle: saline) was 0 of 6, the survivor count (T/C endpoint: mean survival time, dose: 35.0 mg/kg/injection, schedule: Q04DX003 (ip), vehicle: water) was 2 of 6 and the survivor count (T/C endpoint: mean survival time, dose: 50.0 mg/kg/injection, schedule: Q04DX003 (ip), vehicle: water) was 6 of 6.

For O=NN(CCCl)C(=O)N[C@@H]1CCC[C@@H](O)C1, the T/C (T/C endpoint: mean survival time, dose: 13.0 mg/kg/injection, schedule: Q01DX001 (ip), vehicle: saline with Tween-80) was 140 % of control, the T/C (T/C endpoint: mean survival time, dose: 67.0 mg/kg/injection, schedule: Q01DX001 (ip), vehicle: saline with Tween-80) was 147 % of control [9 of 10 alive] and the survivor count (T/C endpoint: mean survival time, dose: 100.0 mg/kg/injection, schedule: Q01DX001 (ip), vehicle: saline with Tween-80) was 9 of 10. The survivor count (T/C endpoint: mean survival time, dose: 150.0 mg/kg/injection, schedule: Q01DX001 (ip), vehicle: saline with Tween-80) was 7 of 10.

For OCCOCCN1CCN(CCCN2c3ccccc3Sc3ccc(C(F)(F)F)cc32)CC1, the survivor count (T/C endpoint: mean survival time, dose: 44.0 mg/kg/injection, schedule: Q04DX003 (ip), vehicle: water) was 3 of 8, the survivor count (T/C endpoint: mean survival time, dose: 66.0 mg/kg/injection, schedule: Q04DX003 (ip), vehicle: water) was 3 of 8 and the survivor count (T/C endpoint: mean survival time, dose: 100.0 mg/kg/injection, schedule: Q04DX003 (ip), vehicle: water) was 1 of 8. The survivor count (T/C endpoint: mean survival time, dose: 150.0 mg/kg/injection, schedule: Q04DX003 (ip), vehicle: saline) was 7 of 10 and the survivor count (T/C endpoint: mean survival time, dose: 150.0 mg/kg/injection, schedule: Q04DX003 (ip), vehicle: water) was 3 of 8.

For O=NN(CCCl)C(=O)N[C@H]1CCCC[C@H]1Cl, the T/C (T/C endpoint: mean survival time, dose: 25.0 mg/kg/injection, schedule: Q01DX001 (ip), vehicle: carboxymethylcellulose (CMC)) was 127 and 136 % of control, the T/C (T/C endpoint: mean survival time, dose: 36.0 mg/kg/injection, schedule: Q01DX001 (ip), vehicle: carboxymethylcellulose (CMC)) was 131 % of control and the T/C [1] was 127 and 133 % of control. The T/C [4] was 139 % of control and the survivor count [4] was 10 of 10.

For N[C@H](C(=O)O)[C@H]1ON=C(Cl)[C@@H]1O, the T/C [5] was 129 % of control, the T/C [6] was 135 % of control and the T/C (T/C endpoint: mean survival time, dose: 128.0 mg/kg/injection, schedule: Q01DX009 (ip), vehicle: saline) was 134 % of control. The T/C (T/C endpoint: mean survival time, dose: 256.0 mg/kg/injection, schedule: Q01DX009 (ip), vehicle: saline) was 140 % of control [7 of 8 alive], the T/C (T/C endpoint: median survival time, dose: 16.0 mg/kg/injection, schedule: Q01DX009 (ip), vehicle: saline) was 127 % of control and the T/C (T/C endpoint: median survival time, dose: 32.0 mg/kg/injection, schedule: Q01DX009 (ip), vehicle: saline) was 128 % of control [7 of 8 alive]. For the same compound, the T/C (T/C endpoint: median survival time, dose: 64.0 mg/kg/injection, schedule: Q01DX009 (ip), vehicle: saline) was 127 % of control and the T/C (T/C endpoint: median survival time, dose: 128.0 mg/kg/injection, schedule: Q01DX009 (ip), vehicle: saline) was 145 % of control.

With CN(N=O)C(=O)NCCCNC(=O)N(C)N=O the T/C [2] was 130 % of control [8 of 10 alive], the survivor count [3] was 0 of 10 and the survivor count (T/C endpoint: mean survival time, dose: 2400.0 mg/kg/injection, schedule: Q01DX001 (ip), vehicle: carboxymethylcellulose (CMC)) was 0 of 10.

C[C@H]1CN1C1=CC(=O)C(N2C[C@@H]2C)=CC1=O was tested, and the survivor count (T/C endpoint: mean survival time, dose: 16.0 mg/kg/injection, schedule: Q01DX009 (ip), vehicle: saline) was 6 of 6, the survivor count [5] was 0 of 6 and the survivor count [6] was 0 of 6.

With COC(=O)c1ccccc1N=NN(C)C the survivor count (T/C endpoint: median survival time, dose: 40.0 mg/kg/injection, schedule: Q01DX009 (ip), vehicle: saline with Tween-80) was 0 of 10, the survivor count (T/C endpoint: median survival time, dose: 80.0 mg/kg/injection, schedule: Q01DX009 (ip), vehicle: saline with Tween-80) was 0 of 10 and the survivor count (T/C endpoint: median survival time, dose: 160.0 mg/kg/injection, schedule: Q01DX009 (ip), vehicle: saline with Tween-80) was 0 of 10.

With CC(=O)OC1CCC(NC(=O)N(CCF)N=O)CC1 (configuration not stated) the T/C (T/C endpoint: mean survival time, dose: 16.0 mg/kg/injection, schedule: Q01DX001 (ip), vehicle: other) was 144 % of control, the survivor count (T/C endpoint: mean survival time, dose: 48.0 mg/kg/injection, schedule: Q01DX001 (oral), vehicle: other) was 3 of 10 and the survivor count (T/C endpoint: mean survival time, dose: 54.0 mg/kg/injection, schedule: Q01DX001 (ip), vehicle: other) was 2 of 10. For the same compound, the survivor count (T/C endpoint: mean survival time, dose: 72.0 mg/kg/injection, schedule: Q01DX001 (oral), vehicle: other) was 1 of 10, the survivor count (T/C endpoint: mean survival time, dose: 81.0 mg/kg/injection, schedule: Q01DX001 (ip), vehicle: other) was 1 of 10 and the survivor count (T/C endpoint: mean survival time, dose: 108.0 mg/kg/injection, schedule: Q01DX001 (oral), vehicle: other) was 1 of 10. For the same compound, the survivor count (T/C endpoint: mean survival time, dose: 162.0 mg/kg/injection, schedule: Q01DX001 (oral), vehicle: other) was 1 of 10.

With CSc1ncnc2c1ncn2C1OC(CO)C(O)C1O (configuration not stated) the survivor count (T/C endpoint: mean survival time, dose: 75.0 mg/kg/injection, schedule: Q01DX Z (ip), vehicle: saline) was 5 of 10 and the survivor count (T/C endpoint: mean survival time, dose: 100.0 mg/kg/injection, schedule: Q01DX Z (ip), vehicle: saline) was 4 of 10.
